Laboratory results: PubChem BioAssay AID652243 (Drosophila RNAi Screening Center, 2013)

Screen: 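Knock-downs that decrease or increase androgen receptor reporter signal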 (primary screen)
Cell system: Drosophila S2R+ cells
Knock-down reagent: long dsRNA against Drosophila genes
Timing: 72 h (48 h, then 24 h hormone)
Conditions: synthetic androgen R1881 at 10 nM for 24 h
Measured: 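Firefly light from an androgen-responsive reporter and Renilla control light per well, raw and unnormalised, for each of two replicates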
Scale: firefly reporter light: higher = more light from androgen-responsive reporter; Renilla control light: higher = more constitutive control signal (cell number, transfection)
Call rule: 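Across duplicate plates, a knock-down whose log firefly/Renilla ratio shifted a set fold down or up from the GFP/LacZ control mean was a hit; the downward cut appears as both 1.5 and 3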
Calls: active = hit: reporter lowered or raised; inactive = no hit
The deposit covers about 24,000 reagents; this is an unselected part of those that have a named target and a result. In the full data, 246 (1%) are marked active. 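Plates not normalised; calls are printed but the firefly/Renilla ratio behind them is not deposited; fold cut for lowering reported inconsistently.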 Raw values vary from plate to plate and are shown uncorrected. The numbers tell different reagents against one gene apart. Not stated in the record: the amount of reagent.

Target gene	dsRNA no.	firefly reporter light, replicate 1	firefly reporter light, replicate 2	Renilla control light, replicate 1	Renilla control light, replicate 2	call
CG5861	1	2.02e5	1.46e5	2.32e6	1.95e6	inactive
CG15878	1	79838	97626	8.20e5	9.28e5	inactive
CG15878	2	3.60e5	3.13e5	1.12e6	1.03e6	inactive
Cp7Fa (Chorion protein a at 7F)	1	3.28e5	4.28e5	2.07e6	2.03e6	inactive
Cp7Fa (Chorion protein a at 7F)	2	2.28e5	1.75e5	1.27e6	1.78e6	inactive
Cp7Fa (Chorion protein a at 7F)	3	7.01e5	7.46e5	1.69e6	1.76e6	inactive
CG6066	1	2.09e5	1.77e5	2.93e6	2.81e6	inactive
CG6066	2	7.11e5	5.39e5	2.26e6	2.04e6	inactive
CG6066	3	1.04e6	4.86e5	3.04e6	1.36e6	inactive
emb (embargoed)	1	5.52e5	7.15e5	1.74e6	2.17e6	inactive
Der-1 (Derlin-1)	1	9.40e5	1.07e6	2.52e6	2.36e6	inactive
hui (hase und igel)	1	2.79e5	3.84e5	1.49e6	1.38e6	inactive
hui (hase und igel)	2	1.35e6	1.20e6	2.38e6	1.37e6	inactive
CycH (Cyclin H)	1	3.07e5	2.90e5	2.01e6	1.88e6	inactive
CycH (Cyclin H)	2	3.89e5	7.82e5	8.17e5	1.23e6	inactive
CycH (Cyclin H)	3					inactive
CG4972	1	2.14e5	1.44e5	1.00e6	1.16e6	inactive
CG34015	1	9.34e5	9.12e5	1.44e6	1.23e6	inactive
rtet (tetracycline resistance)	1	1.20e5	67867	1.06e6	1.16e6	inactive
CG8765	1	8.10e5	8.47e5	1.47e6	1.51e6	inactive
CG8765	2	7.41e5	6.00e5	8.83e5	6.58e5	inactive
CG10674	1	1.86e5	1.96e5	2.49e6	3.15e6	inactive
rush (rush hour)	1	1.73e5	1.37e5	1.23e6	1.05e6	inactive
CG9967	1	2.79e5	3.12e5	2.22e6	2.22e6	inactive
CG9967	2	1.26e6	1.39e6	1.68e6	1.42e6	inactive
CG7968	1	2.61e5	2.54e5	1.86e6	1.91e6	inactive
St1 (Sulfotransferase 1)	1	2.58e5	7.88e5	6.87e5	1.44e6	inactive
St1 (Sulfotransferase 1)	2	8.46e5	8.45e5	4.82e5	7.73e5	inactive
O-fut2 (O-fucosyltransferase 2)	1	69308	61967	7.04e5	3.81e5	inactive
CG7900	1	3.47e5	3.51e5	2.20e6	1.97e6	active
CG7900	2	4.49e5	5.40e5	1.59e6	1.42e6	inactive
CG10077	1	8.91e5	7.84e5	7.84e5	8.63e5	inactive
CG10077	2	8.39e5	9.21e5	8.29e5	7.80e5	inactive
sni (sniffer)	1	1.05e5	1.04e5	7.05e5	9.47e5	inactive
sni (sniffer)	2	4.09e5	2.92e5	9.52e5	5.64e5	inactive
sni (sniffer)	3	5.92e5	4.94e5	1.87e6	1.83e6	inactive
Ltn1 (Listerin E3 ubiquitin protein ligase 1)	1	12643	18034	2.64e5	1.72e5	inactive
Ltn1 (Listerin E3 ubiquitin protein ligase 1)	2	2.86e5	1.95e5	2.67e6	2.74e6	inactive
CG13575	1	2.38e5	3.27e5	2.38e6	2.45e6	inactive
CG13575	2	3.29e5	6.79e5	9.45e5	1.76e6	inactive
